Reference: publication PMC8131845
These are yes or no findings as the source states them, for the method shown. In cells and extracts the contact can be indirect. Some binding calls cover weakened binding; strength is not graded here. For some assays here: Sequences can lack the tags named with a protein.

Chains of the proteins cited; added tags and fusions are not shown.
UniProt Q9QYB1: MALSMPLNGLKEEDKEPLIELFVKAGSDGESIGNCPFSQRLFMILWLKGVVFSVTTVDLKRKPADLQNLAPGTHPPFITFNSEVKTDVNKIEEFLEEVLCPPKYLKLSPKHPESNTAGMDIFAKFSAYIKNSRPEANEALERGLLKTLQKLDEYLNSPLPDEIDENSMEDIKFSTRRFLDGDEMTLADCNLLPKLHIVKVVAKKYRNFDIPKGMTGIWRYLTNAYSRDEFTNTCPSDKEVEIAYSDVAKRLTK
UniProt Q8BXK9: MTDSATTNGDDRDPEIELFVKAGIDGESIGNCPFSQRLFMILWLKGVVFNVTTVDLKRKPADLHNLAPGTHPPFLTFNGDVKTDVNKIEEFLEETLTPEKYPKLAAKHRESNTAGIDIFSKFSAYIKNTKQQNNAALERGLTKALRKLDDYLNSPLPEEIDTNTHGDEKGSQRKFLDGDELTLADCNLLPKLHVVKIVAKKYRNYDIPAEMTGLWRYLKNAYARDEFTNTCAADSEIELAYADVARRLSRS

T1: Myc-tagged GRXCR2 (mouse) (UniProt Q3TYR5)
T1 sequence: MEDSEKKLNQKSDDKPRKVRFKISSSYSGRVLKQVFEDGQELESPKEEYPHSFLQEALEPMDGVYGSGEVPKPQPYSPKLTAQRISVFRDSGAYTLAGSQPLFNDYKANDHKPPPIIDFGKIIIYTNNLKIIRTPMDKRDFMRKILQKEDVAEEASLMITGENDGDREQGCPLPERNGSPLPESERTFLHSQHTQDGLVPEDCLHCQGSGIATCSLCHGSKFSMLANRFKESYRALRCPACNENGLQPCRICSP

T2: Taperin (mouse) (UniProt A2AI08)
T2 sequence: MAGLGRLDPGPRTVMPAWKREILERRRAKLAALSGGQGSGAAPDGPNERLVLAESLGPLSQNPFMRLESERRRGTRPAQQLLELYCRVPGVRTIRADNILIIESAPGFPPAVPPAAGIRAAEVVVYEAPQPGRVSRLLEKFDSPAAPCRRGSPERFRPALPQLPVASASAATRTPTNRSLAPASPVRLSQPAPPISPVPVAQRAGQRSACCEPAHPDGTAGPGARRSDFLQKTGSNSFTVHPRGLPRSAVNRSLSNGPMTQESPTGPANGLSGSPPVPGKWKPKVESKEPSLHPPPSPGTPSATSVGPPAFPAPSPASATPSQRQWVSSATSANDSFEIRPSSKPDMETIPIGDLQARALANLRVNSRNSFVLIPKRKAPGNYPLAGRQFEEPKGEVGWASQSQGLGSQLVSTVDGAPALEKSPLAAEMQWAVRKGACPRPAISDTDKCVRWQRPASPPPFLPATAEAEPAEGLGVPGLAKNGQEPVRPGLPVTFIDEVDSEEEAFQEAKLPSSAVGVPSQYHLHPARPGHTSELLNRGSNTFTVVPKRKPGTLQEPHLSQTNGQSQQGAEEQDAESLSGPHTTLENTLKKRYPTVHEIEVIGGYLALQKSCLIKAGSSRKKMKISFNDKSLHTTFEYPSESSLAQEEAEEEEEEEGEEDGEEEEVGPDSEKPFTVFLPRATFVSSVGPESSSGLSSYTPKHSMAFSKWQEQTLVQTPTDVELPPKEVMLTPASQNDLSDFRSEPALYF

B1: GRXCR2 (construct of the co-IP with taperin, Supplementary Figure 1B) (protein, UniProt Q3TYR5 1-254)
chain: T1 sequence
B2: GFP tagged GRXCR2 (protein, UniProt Q3TYR5 1-254)
chain: T1 sequence
B3: Taperin (protein, UniProt A2AI08 1-749)
chain: T2 sequence
B4: GRXCR2 (Δ36–95) (protein, UniProt Q3TYR5)
chain: MEDSEKKLNQKSDDKPRKVRFKISSSYSGRVLKQVLAGSQPLFNDYKANDHKPPPIIDFGKIIIYTNNLKIIRTPMDKRDFMRKILQKEDVAEEASLMITGENDGDREQGCPLPERNGSPLPESERTFLHSQHTQDGLVPEDCLHCQGSGIATCSLCHGSKFSMLANRFKESYRALRCPACNENGLQPCRICSP

Experiments:
Assay in all cases: co-IP; extracts of HEK293 cells transfected with tagged constructs; immunoprecipitation with Myc-antibody (Figure 1C) or HA-antibody (Figure 1D-G), western blotting of co-expressed proteins
[1] = target: T1, Myc-tagged GRXCR2 (mouse)
[2] = target: T2, Taperin (mouse)
[3] = target: Domain-swapped CLIC protein: N terminal 94 aa of CLIC4 on the rest of CLIC5 (mouse) (UniProt Q9QYB1+Q8BXK9)
[4] = target: Domain-swapped CLIC protein: N terminal 94 aa of CLIC5 on the rest of CLIC4 (mouse) (UniProt Q8BXK9+Q9QYB1)
[5] = target: HA-tagged CLIC5 (mouse) (UniProt Q8BXK9)
[6] = target: CLIC4 (paralog of CLIC5) (mouse) (UniProt Q9QYB1)

Molecule	binding [2]	binding [5]	further results
GFP-tagged CLIC5 (from UniProt Q8BXK9 1-251)			binding [1]: binds
B1	binds		
B2		binds	binding [3]: binds; binding [4]: binds
B3		binds	binding [6]: binds
B4	binds		
